Measured values reported in US10899764B2, “Imidazo isoindole derivative, preparation method therefor and medical use thereof” (Jiangsu Hengrui Medicine Co., Ltd., priority 2015, dated 2021).

Tests used:
[1] = Pharmacokinetics assay in SD rats after intragastrical administration; settings: both, Sprague-Dawley, rat, in vivo, po, 10 mg/kg
[2] = Pharmacokinetics assay in c57bl/6 mice after intragastric administration; settings: female, C57BL/6, mouse, in vivo, po, 2 mg/kg

SMILES | CL/F [1] | Vd/F [1] | half-life [1] | AUC [2] | CL/F [2] | Cmax [2] | MRT [2] | Vd/F [2] | half-life [2]
Cn1cc(-c2ccc(N3CCC(C4c5c(F)cccc5-c5cncn54)CC3)cc2)cn1 (stereo not drawn) [Example 9, 6-fluoro-5-(1-(4-(1-methyl-1H-pyrazol-4-yl)phenyl)piperidin-4-yl)-5H-imidazo[5,1-a]isoindole] | 0.912 ± 0.654 L/h/kg | 2.62 ± 1.59 L/kg | 2.22 ± 0.48 h | – | – | – | – | – | –
Cn1cc(-c2ccc(N3CCC([C@H]4c5c(F)cccc5-c5cncn54)CC3)cc2)cn1 [Example 28, (S)-6-fluoro-5-(1-(4-(1-methyl-1H-pyrazol-4-yl)phenyl)piperidin-4-yl)-5H-imidazo[5,1-a]isoindole] | – | – | – | 5.67 µg·h/mL | 0.353 L/h/kg | 0.972 µg/mL | 6.99 h | 2.44 L/kg | 4.79 h
